From US20050000529A1, “Method and compositions for imparting cooling effect to tobacco products” (priority 2001, published 2005) come the findings set out here.

This data set in a line: Cooling threshold in tap water, triangle test. The data set is classed as in vivo. Conditions: ratio of cooling threshold to odor threshold.

For `CC1CC=C(N2CCCCC2)C1=O` (stereo not shown) [Compound 5, 5-methyl-2-(1-piperidinyl)-2-cyclopenten-1-one], the “Ratio (cool/odor)” value is listed as 2.7.
To `CC1CCC=C(N2CCCC2)C1=O` (stereo not shown) [Compound 18, 6-methyl-2-(1-pyrrolidinyl)-2-cyclohexen-1-one] belongs 4.0; to `CCCCN(CCCC)C1=CCC(C)C1=O` (stereo not shown) [Compound 7, 5-methyl-2-dibutylamino-2-cyclopenten-1-one], 16.0; to `CCC1CC=C(N2CCCC2)C1=O` (stereo not shown) [Compound 9, 5-ethyl-2-(1-pyrrolidinyl)-2-cyclopenten-1-one], 2.0.
For `CC1=C(N2CCCC2)C(=O)CCC1` [Compound 16, 3-methyl-2-(1-pyrrolidinyl)-2-cyclohexen-1-one] the value was 32.0; for `CC1=C(N2CCC[C@H]2C(=O)O)C(=O)CC1` [Compound 22, (S)-3-methyl-2-(2-carboxy-l-pyrrolidinyl)-2-cyclopenten-1-one], <1; for `CC1CC=C(N2CCOCC2)C1=O` (stereo not shown) [Compound 20, 5-methyl-2-(1-morpholino)-2-cyclopenten-1-one], 0.5.
To `CC1=C(N2CCCC2)C(=O)C(C)C1` (stereo not shown) [Compound 11, 3,5-dimethyl-2-(1-pyrrolidinyl)-2-cyclopenten-1-one] belongs 2.0; to `CC1=C(N2CCCC2)C(=O)CC1C` (stereo not shown) [Compound 12, 3,4-dimethyl-2-(1-pyrrolidinyl)-2-cyclopenten-1-one], 2.0.
Consider `CCN(CC)C1=C(C)CCC1=O` [Compound 4, 3-methyl-2-diethylamino-2-cyclopenten-1-one], for which the “Ratio (cool/odor)” value amounted to 10.0.
For `CC1=C(N2CCCC2)C(=O)C(C)O1` (stereo not drawn) [Compound 24, 2,5-dimethyl-4-(l-pyrrolidinyl)-3-(2H)-furanone] the value was 2.7; for `CC1CC=C(N2CCCC2)C1=O` (stereo not shown) [Compound 2, 5-methyl-2-(1-pyrrolidinyl)-2-cyclopenten-1-one], 1.7.
To `CC1CC(C)(C)C=C(N2CCCC2)C1=O` (stereo not shown) [Compound 19, 4,4,6-trimethyl-2-(1-pyrrolidinyl)-2-cyclohexen-1-one] belongs 4.0; to `CC1=C(N2CCCC2)C(=O)OC1C` (stereo not shown) [Compound 26, 4,5-dimethyl-3-(1-pyrrolidinyl)-2-(5H)-furanone], <0.1.
Turning to `CCN(CC)C1=CCC(C)C1=O` (stereo not shown) [Compound 6, 5-methyl-2-diethylamino-2-cyclopenten-1-one], the “Ratio (cool/odor)” value is recorded as 2.1.
For `COC(=O)C1CCCN1C1=CC[C@H](C)C1=O` (stereo partly drawn) [Compound 21, (S)-5-methyl-2-(2-methoxycarbonyl-1-pyrrolidinyl)-2-cyclopenten-1-one], the “Ratio (cool/odor)” value is reported as <1.
For `CC1=C(N2CCCC2)CCC1=O` [Compound 14, 2-methyl-3-(1-pyrrolidinyl)-2-cyclopenten-1-one] the value was 8.0; for `CC1=C(N2CCCC2)C(=O)CC1` [Compound 1, 3-methyl-2-(1-pyrrolidinyl)-2-cyclopenten-1-one], 0.8; for `CC1=C(N2CCCC2)C(=O)CC(C)(C)C1` [Compound 17, 3,5,5-trimethyl-2-(1-pyrrolidinyl)-2-cyclohexen-1-one], 8.0.
In the case of `CC1C=C(N2CCCC2)C(=O)C1C` (stereo not shown) [Compound 10, (E)-4,5-dimethyl-2-(1-pyrrolidinyl)-2-cyclopenten-1-one], the “Ratio (cool/odor)” value stood at 0.5.
To `O=C1CCCC=C1N1CCCC1` [Compound 15, 2-(1-pyrrolidinyl)-2-cyclohexen-1-one] belongs 2.0; to `CC1=C(N2CCCCC2)C(=O)CC1` [Compound 3, 3-methyl-2-(1-piperidinyl)-2-cyclopenten-1-one], 0.8.
